What follows are compounds tested on anti-cortisol antibody (assay: Cortisol RIA). Conditions: A ring-directed antibody, FIG. 28.
Assay type: binding

SMILES	Cortisol-like immunoreactivity of purified compounds
CC(C)[C@]12O[C@H]1[C@@H]1O[C@]13[C@]1(O[C@H]1C[C@H]1C4=C(C(=O)OC4)[C@@H](O)C[C@@]13C)[C@@H]2O [Tripdiolide, tripdiolide]	fails to detect cortisol-like immunoreactivity
CC(C)[C@]12O[C@H]1[C@@H]1O[C@]13[C@]1(O[C@H]1C[C@H]1C4=C(CC[C@@]13C)C(=O)OC4)[C@@H]2O [Triptolide, triptolide]	fails to detect cortisol-like immunoreactivity
CC(C)c1ccc2c(c1O)CC[C@H]1C3=C(CC[C@]21C)C(=O)OC3 [Triptophenolide, triptophenolide]	may have low affinity immunoreactivity

Source: patent publication US5846742A, “Selecting substances for treating glucocorticoid-mediated inflammation or immune diseases using Tripterygium wilfordii Hook F extracts” (Board of Regents, The University of Texas System, priority 1997, dated 1998)
